These results are taken from publication PMC4872778.

These are yes or no findings as the source states them, for the method shown. Binding seen in cells or lysates may run through a third protein. Some results given as binding are weak or reduced against the parent protein; the word gives no strength.

Assay [1] addresses DAPK, wild type, as used in the IP assays of Figures 3A, 3B and 4D (UniProt P53355). Put plainly: co-IP; reciprocal immunoprecipitation of DANGER and DAPK in NSCLC cells (Figure 3A, 3B); antibodies and constructs not told.
Assay [2] has the same target. In words: co-IP; IP assay ('binding assay') of DAPK forms (WT, DD-only, ΔDD) with DANGER (Figure 4D); antibodies and constructs not told.
For assay [3], the target named is T1, DAPK DD-only as used in the IP assay of Figure 4D (UniProt P53355).
T1 sequence: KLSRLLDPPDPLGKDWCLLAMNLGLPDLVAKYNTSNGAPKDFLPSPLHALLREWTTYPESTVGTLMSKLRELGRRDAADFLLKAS
The description is as above.

The target in assay [4] is T2, DAPK DD-only-VN (from pBiFC-DAPK (DD-only)-VN) (UniProt P53355).
T2 sequence: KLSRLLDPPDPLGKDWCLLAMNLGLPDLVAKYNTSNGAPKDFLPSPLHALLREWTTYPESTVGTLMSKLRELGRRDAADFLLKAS
In words: split reporter; BiFC with Venus fragments (VN on DAPK forms, VC on DANGER) in transiently transfected live NCI-H460 or A427 cells; fluorescence microscopy.

The target in assay [5] is DAPK-VN, wild type (from pBiFC-DAPK-VN) (UniProt P53355). Described as above.
Assay [6] has as its target death-associated protein kinase (DAPK), endogenous (human (endogenous in NCI-H460 and A427)) (UniProt P53355). In words: co-IP; IP assay of endogenous DANGER and endogenous DAPK in NSCLC cells (NCI-H460, A427), with HG treatment (Figure 3C).

B1: DANGER as used in the IP assays of Figures 3A, 3B and 4D (protein, UniProt Q8IWB1 16-547)
chain: IINHPLLFPRENATVPENEEEIIRKMQAHQEKLQLEQLRLEEEVARLAAEKEALEQVAEEGRQQNETRVAWDLWSTLCMILFLMIEVWRQDHQEGPSPECLGGEEDELPGLGGAPLQGLTLPNKATLGHFYERCIRGATADAARTREFLEGFVDDLLEALRSLCNRDTDMEVEDFIGVDSMYENWQVDRPLLCHLFVPFTPPEPYRFHPELWCSGRSVPLDRQGYGQIKVVRADGDTLSCICGKTKLGEDMLCLLHGRNSMAPPCGDMENLLCATDSLYLDTMQVMKWFQTALTRAWKGIAHKYEFDLAFGQLDSPGSLKIKFRSGKFMPFNLIPVIQCDDSDLYFVSHLPREPSEGTPASSTDWLLSFAVYERHFLRTTLKALPEGACHLSCLQIASFLLSKQSRLTGPSGLSSYHLKTALLHLLLLRQAADWKAGQLDARLHELLCFLEKSLLQKKLHHFFIGNRKVPEAMGLPEAVLRAEPLNLFRPFVLQRSLYRKTLDSFYEMLKNAPALISEYSLHVPSDQPTPKS
On to B1, for which the binding result in assay [1], in assay [2] and in assay [3] was “binds” each time.

B2: DANGER-VC (from pBiFC-DANGER-VC) (protein, UniProt Q8IWB1 16-547)
chain: IINHPLLFPRENATVPENEEEIIRKMQAHQEKLQLEQLRLEEEVARLAAEKEALEQVAEEGRQQNETRVAWDLWSTLCMILFLMIEVWRQDHQEGPSPECLGGEEDELPGLGGAPLQGLTLPNKATLGHFYERCIRGATADAARTREFLEGFVDDLLEALRSLCNRDTDMEVEDFIGVDSMYENWQVDRPLLCHLFVPFTPPEPYRFHPELWCSGRSVPLDRQGYGQIKVVRADGDTLSCICGKTKLGEDMLCLLHGRNSMAPPCGDMENLLCATDSLYLDTMQVMKWFQTALTRAWKGIAHKYEFDLAFGQLDSPGSLKIKFRSGKFMPFNLIPVIQCDDSDLYFVSHLPREPSEGTPASSTDWLLSFAVYERHFLRTTLKALPEGACHLSCLQIASFLLSKQSRLTGPSGLSSYHLKTALLHLLLLRQAADWKAGQLDARLHELLCFLEKSLLQKKLHHFFIGNRKVPEAMGLPEAVLRAEPLNLFRPFVLQRSLYRKTLDSFYEMLKNAPALISEYSLHVPSDQPTPKS
Take B2: the binding result in assay [4] and in assay [5] was “binds” in each case.

B3: DANGER (ITPRIP, inositol 1,4,5-trisphosphate receptor (IP3R) interacting protein), endogenous (protein, UniProt Q8IWB1 16-547)
chain: IINHPLLFPRENATVPENEEEIIRKMQAHQEKLQLEQLRLEEEVARLAAEKEALEQVAEEGRQQNETRVAWDLWSTLCMILFLMIEVWRQDHQEGPSPECLGGEEDELPGLGGAPLQGLTLPNKATLGHFYERCIRGATADAARTREFLEGFVDDLLEALRSLCNRDTDMEVEDFIGVDSMYENWQVDRPLLCHLFVPFTPPEPYRFHPELWCSGRSVPLDRQGYGQIKVVRADGDTLSCICGKTKLGEDMLCLLHGRNSMAPPCGDMENLLCATDSLYLDTMQVMKWFQTALTRAWKGIAHKYEFDLAFGQLDSPGSLKIKFRSGKFMPFNLIPVIQCDDSDLYFVSHLPREPSEGTPASSTDWLLSFAVYERHFLRTTLKALPEGACHLSCLQIASFLLSKQSRLTGPSGLSSYHLKTALLHLLLLRQAADWKAGQLDARLHELLCFLEKSLLQKKLHHFFIGNRKVPEAMGLPEAVLRAEPLNLFRPFVLQRSLYRKTLDSFYEMLKNAPALISEYSLHVPSDQPTPKS
On to B3, for which, in assay [6], the binding result was “binds”.
